Results are given in words; binding and its absence hold for the method and conditions named. Binding seen in cells or lysates may run through a third protein. Some results given as binding are weak or reduced against the parent protein; the word gives no strength.
Target: P53 (human (endogenous in Ishikawa)) (UniProt P04637)
Assay: co-IP; Ishikawa cell lysate (SNORD15B plasmid or empty vector), precleared with magnetic beads, 1 mg protein with 4 ug anti-P53 antibody or IgG overnight at 4°C, magnetic beads; blot probed with anti-TRIM25

TRIM25 (from UniProt Q14258 1-630)
binding: binds

Reference: paper PMC9529403
